Construct, isoform or probe ends are uncertain for at least one entry. For part of these data: No signal at the amounts used counts as a negative. Protein sequences can lack the tags named with them.
What was measured:
Androgen receptor = target: T1, Androgen receptor (UniProt P10275); assay: activity in cells; conditions: reporter with 496-bp enhancer; 1 nM R1881; protein in cells; protein details: CMV-AR, BHK 21 cells
T1 sequence (looked up, limits assumed): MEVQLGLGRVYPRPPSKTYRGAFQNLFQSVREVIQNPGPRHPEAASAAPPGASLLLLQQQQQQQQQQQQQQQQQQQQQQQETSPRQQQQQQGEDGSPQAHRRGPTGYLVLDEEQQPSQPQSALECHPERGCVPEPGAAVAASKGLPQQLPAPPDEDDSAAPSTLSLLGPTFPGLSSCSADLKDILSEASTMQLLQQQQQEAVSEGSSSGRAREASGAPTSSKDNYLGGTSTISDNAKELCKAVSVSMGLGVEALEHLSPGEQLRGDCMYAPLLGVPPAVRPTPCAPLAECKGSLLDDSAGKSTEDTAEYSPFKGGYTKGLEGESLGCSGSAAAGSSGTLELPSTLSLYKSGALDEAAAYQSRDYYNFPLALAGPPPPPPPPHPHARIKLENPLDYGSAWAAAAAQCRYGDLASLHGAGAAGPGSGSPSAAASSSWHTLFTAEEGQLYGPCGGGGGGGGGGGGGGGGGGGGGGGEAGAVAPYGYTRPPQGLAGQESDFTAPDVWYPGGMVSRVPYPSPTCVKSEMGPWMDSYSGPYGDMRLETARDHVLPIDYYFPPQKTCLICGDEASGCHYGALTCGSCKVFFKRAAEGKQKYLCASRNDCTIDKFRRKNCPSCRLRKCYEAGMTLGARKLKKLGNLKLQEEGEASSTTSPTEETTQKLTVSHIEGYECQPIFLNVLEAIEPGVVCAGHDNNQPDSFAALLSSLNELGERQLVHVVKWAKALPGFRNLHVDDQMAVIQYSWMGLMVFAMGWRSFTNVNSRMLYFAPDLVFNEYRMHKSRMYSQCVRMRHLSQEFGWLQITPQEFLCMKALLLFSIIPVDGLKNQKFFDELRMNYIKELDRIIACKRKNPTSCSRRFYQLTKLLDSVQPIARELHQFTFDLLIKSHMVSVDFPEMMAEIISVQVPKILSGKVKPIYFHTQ

Progesterone receptor = target: T2, Progesterone receptor (UniProt P06401); assay: activity in cells; conditions: reporter with 496-bp enhancer; 10 nM progesterone; no significant effect; protein in cells; protein details: CMV-PR, BHK 21 cells
T2 sequence (looked up, limits assumed): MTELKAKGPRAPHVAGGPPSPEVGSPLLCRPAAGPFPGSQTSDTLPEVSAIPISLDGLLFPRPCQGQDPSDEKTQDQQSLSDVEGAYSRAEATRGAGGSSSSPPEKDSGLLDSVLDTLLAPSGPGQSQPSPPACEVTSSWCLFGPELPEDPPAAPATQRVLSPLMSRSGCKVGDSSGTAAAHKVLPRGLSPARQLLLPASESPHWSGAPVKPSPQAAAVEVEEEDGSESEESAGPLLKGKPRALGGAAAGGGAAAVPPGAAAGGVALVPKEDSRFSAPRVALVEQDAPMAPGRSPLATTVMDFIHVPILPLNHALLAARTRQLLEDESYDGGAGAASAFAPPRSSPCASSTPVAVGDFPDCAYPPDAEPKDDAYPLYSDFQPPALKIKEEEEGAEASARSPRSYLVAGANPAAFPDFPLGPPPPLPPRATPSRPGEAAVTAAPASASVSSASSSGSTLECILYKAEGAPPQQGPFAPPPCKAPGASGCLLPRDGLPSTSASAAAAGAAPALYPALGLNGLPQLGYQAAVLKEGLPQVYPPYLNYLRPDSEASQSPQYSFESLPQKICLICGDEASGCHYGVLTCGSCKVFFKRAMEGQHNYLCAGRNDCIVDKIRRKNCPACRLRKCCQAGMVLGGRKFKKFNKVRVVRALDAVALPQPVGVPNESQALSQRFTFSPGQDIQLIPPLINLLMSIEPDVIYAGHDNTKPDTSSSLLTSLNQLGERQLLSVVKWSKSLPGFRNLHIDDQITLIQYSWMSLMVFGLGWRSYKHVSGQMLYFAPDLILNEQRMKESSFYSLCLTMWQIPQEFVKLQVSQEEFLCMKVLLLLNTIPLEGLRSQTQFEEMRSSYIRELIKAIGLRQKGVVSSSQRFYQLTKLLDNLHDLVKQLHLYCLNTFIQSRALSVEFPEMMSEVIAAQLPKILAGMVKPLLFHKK

[1] = target: T3, Androgen receptor DNA-binding domain (ARDBD, aa 549-650) (Homo sapiens) (UniProt P10275); assay: footprint; conditions: footprint and gel shift; AR form not stated; MV number assigned to primers by order; purified recombinant protein; variant of PSA enhancer ARE V
T3 sequence (looked up): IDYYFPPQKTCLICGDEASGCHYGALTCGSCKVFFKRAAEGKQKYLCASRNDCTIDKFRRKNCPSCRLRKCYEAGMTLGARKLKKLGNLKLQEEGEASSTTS

Sequence | activity on this sequence (Androgen receptor) | activity on this sequence (Progesterone receptor) | binding result [1]
GGTGACCAGAGCAGTCTAGGTGGATGCTGTGCACACGGGGTTTGTGCCACTGGTGAGAAACCTGAGATTAGGAATCCTCAATCTTATACTGGGACAACTTGCAAACCTGCTCAGCCTTTGTCTCTGATGAAGATATTATCTTCATGATCTTGGATTGAAAACAGACCTACTCTGGAGGAACATATTGTATTGATTGTCCTTGACAGTAAACAAATCTGTTGTAAGAGACATTATCTTTATTATCTAGGACAGTAAGCAAGCCTGGATCTGAGAGAGATATCATCTTGCAAGGATGCCTGCTTTACAAACATCCTTGAAACAACAATCCAGAAAAAAAGTGTTGCTGTCTTTGCTCAGAAGACACACAGATACGTGACAGAACCATGGTAACC (double strand) [PSA enhancer fragment -4309 to -4011] | active | not active | –
ACTGTTCAAACTTGCAAACCTGC (double strand) [ARE V mutant MV1] | – | – | no binding

— patent US7267978, “Chimeric transcriptional regulatory element compositions and methods for increasing prostate-targeted gene expression” (The Regents of the University of California)
